In publication doi:10.1101/2022.03.08.483320 one finds binding data, which are given here for 3 substances.

The chains behind the UniProt entries cited, without tags or fusion partners.
UniProt P52701: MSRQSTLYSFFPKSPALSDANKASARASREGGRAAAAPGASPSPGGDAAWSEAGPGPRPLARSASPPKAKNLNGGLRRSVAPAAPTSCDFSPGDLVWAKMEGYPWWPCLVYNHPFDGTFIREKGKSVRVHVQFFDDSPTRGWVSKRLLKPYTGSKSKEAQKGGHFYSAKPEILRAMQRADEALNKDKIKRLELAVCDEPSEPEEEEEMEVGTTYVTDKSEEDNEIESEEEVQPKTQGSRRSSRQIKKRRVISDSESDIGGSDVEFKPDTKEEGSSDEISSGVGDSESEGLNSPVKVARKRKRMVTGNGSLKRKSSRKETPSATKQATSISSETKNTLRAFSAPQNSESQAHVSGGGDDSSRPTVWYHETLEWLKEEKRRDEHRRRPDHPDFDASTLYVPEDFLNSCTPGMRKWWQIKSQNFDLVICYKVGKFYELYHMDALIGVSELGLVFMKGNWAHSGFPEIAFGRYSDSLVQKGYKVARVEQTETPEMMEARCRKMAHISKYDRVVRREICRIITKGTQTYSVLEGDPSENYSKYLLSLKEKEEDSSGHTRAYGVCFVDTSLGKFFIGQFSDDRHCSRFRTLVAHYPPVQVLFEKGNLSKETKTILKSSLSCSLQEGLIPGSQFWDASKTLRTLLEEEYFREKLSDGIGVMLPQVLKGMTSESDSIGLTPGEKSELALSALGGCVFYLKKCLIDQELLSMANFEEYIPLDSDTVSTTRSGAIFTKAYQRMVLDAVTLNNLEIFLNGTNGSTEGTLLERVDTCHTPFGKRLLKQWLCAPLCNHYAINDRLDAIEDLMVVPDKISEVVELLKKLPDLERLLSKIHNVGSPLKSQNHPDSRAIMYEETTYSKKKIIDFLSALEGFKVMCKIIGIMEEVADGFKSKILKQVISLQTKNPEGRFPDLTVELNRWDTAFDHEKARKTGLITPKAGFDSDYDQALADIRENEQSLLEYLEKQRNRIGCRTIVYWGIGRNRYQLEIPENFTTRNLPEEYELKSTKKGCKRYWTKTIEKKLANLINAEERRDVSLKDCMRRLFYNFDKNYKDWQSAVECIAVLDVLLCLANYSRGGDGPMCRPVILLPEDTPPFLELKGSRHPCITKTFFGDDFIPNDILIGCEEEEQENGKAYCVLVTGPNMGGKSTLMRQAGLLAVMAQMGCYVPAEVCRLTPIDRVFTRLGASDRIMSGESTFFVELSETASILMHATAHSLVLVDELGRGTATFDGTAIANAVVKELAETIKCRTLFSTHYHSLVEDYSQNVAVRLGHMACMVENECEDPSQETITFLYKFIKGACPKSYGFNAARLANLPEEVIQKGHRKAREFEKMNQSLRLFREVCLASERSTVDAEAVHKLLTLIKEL
UniProt Q92878: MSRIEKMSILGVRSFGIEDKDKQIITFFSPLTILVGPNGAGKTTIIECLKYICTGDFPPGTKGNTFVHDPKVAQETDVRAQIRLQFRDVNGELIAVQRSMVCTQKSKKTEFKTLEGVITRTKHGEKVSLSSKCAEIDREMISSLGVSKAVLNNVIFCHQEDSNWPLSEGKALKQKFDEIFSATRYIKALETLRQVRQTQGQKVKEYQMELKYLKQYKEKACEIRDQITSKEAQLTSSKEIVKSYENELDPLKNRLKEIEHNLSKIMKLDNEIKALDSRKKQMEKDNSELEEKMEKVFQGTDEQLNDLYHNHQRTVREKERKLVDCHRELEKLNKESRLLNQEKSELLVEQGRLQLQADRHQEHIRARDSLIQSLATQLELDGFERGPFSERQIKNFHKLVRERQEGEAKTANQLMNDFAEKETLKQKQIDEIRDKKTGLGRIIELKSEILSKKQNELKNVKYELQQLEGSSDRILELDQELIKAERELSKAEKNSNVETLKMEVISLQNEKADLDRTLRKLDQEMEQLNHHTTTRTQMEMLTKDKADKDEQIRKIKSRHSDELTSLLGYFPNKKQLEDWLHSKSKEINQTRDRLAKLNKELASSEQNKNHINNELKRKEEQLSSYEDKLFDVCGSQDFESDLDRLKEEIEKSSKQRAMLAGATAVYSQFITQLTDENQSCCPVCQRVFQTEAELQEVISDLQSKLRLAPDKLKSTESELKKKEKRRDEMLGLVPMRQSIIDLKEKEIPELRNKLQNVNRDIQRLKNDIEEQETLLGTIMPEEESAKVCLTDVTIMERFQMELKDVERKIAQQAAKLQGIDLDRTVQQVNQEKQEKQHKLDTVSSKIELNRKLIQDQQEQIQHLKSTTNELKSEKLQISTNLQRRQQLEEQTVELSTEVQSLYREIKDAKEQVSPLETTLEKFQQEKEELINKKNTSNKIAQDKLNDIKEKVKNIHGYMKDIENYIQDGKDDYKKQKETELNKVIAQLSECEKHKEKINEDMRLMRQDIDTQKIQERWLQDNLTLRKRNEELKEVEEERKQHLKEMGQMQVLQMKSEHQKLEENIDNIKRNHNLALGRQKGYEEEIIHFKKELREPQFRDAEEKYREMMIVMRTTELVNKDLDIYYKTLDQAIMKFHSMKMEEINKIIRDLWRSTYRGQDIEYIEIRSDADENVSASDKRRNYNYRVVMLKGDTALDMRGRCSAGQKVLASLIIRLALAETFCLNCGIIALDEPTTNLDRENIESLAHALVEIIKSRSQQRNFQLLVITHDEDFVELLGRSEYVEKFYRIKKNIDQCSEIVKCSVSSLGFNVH
UniProt Q12888: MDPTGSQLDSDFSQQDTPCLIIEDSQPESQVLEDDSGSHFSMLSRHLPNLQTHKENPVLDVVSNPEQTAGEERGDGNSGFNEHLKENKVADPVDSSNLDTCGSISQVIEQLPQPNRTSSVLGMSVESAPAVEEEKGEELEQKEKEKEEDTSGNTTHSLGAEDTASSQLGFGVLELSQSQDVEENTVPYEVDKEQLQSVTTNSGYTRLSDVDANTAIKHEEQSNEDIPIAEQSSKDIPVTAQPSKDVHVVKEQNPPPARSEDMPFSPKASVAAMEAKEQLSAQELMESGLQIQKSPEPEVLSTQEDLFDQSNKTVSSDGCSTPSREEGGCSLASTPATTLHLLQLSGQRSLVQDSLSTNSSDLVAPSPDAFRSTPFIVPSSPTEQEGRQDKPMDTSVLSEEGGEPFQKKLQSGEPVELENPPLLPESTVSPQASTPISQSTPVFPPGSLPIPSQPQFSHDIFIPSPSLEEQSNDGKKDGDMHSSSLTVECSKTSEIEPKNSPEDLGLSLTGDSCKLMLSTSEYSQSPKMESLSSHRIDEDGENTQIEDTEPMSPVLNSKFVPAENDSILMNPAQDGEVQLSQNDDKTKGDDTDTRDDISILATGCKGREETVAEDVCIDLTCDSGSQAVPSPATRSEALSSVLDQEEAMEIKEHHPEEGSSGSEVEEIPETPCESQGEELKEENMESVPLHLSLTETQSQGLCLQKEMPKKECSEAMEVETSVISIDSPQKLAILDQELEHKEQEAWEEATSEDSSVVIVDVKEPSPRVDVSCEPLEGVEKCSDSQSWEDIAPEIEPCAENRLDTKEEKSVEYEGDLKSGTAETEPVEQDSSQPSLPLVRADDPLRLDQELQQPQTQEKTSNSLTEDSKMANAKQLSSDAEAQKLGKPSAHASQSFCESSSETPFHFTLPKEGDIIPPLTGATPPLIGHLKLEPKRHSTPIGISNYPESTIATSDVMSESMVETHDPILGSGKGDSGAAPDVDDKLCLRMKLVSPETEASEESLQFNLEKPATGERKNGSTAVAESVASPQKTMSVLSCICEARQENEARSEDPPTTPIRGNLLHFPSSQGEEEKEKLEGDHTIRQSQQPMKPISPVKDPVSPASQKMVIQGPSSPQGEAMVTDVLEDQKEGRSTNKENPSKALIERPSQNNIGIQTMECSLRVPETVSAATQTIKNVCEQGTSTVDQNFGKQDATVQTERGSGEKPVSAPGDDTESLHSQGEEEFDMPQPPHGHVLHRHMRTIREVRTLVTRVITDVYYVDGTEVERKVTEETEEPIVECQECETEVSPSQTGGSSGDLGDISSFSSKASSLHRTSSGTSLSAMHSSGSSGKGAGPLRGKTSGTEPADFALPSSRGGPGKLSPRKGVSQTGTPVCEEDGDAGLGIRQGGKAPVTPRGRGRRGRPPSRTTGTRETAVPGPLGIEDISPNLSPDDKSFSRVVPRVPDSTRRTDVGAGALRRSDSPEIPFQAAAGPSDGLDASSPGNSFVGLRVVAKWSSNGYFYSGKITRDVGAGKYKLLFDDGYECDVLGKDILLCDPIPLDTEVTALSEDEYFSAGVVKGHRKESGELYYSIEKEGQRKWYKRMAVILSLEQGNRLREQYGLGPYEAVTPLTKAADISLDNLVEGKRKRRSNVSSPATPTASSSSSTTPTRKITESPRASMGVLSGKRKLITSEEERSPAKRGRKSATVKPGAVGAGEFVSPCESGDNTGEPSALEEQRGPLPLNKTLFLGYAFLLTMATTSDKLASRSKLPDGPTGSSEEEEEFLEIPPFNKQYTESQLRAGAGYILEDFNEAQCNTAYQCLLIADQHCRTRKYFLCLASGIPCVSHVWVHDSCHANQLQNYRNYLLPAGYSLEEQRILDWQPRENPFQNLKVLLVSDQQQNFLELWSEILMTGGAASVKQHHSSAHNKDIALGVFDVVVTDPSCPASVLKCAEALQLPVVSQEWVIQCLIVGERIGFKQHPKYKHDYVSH

No constants are given. Whether binding was seen depends on the method and setting. In cells and extracts the contact can be indirect. A yes stands for co-enrichment or nearness to the bait. Other partners may have been found.

The assay has as its target T1, TRIM29 (immunoprecipitated from the nuclear fraction of RWPE-1) (human (endogenous in RWPE-1)) (UniProt Q14134).
T1 sequence: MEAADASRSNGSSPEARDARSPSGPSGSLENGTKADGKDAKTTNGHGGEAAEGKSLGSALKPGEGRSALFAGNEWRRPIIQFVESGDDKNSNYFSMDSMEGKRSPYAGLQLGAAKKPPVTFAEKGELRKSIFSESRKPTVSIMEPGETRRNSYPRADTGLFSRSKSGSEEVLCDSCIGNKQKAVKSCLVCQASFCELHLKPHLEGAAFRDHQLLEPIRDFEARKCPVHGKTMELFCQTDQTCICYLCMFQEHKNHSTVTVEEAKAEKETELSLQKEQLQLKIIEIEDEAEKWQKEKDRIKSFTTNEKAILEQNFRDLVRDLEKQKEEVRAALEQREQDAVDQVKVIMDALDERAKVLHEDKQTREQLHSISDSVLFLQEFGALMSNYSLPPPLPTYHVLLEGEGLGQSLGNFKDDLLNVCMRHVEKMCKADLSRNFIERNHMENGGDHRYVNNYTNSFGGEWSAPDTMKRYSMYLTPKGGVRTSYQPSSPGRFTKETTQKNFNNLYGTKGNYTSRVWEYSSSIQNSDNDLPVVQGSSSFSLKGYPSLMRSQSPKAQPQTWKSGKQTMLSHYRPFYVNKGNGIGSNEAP
Nature of the assay: affinity purification with mass spectrometry.
In the case of MSH6 (from UniProt P52701 1-1360), the binding entry is reported as “binds”.
RAD50 (from UniProt Q92878 1-1312): the binding result is recorded as “binds”.
For TP53BP1 (from UniProt Q12888 1-1972) the value was “binds”.
